Data taken from the supplement of paper PMC4635364.
Structures can show the parent of a compound that is named as a salt. Some of the results follow. Repeats in this data set agree poorly, so a single value says little.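 Human fetal ventral-midbrain neural progenitor line ReNCell VM, differentiated without mitogens. Images stained for doublecortin (early neurons) or tyrosine hydroxylase (dopaminergic neurons) were scored by blinded raters against untreated wells (0 = no change). Repeats and both raters were averaged, and compounds averaging 2 or higher were picked as hits for retesting.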

Tests used:
[1] = test system: ReNCell VM; test: neuronal differentiation score (DCX+ cell fraction vs untreated, manual image score) (score (-3 to 3)); higher = more neuronal differentiation; conditions: 2 uM, 2 weeks
[2] = test system: ReNCell VM; test: dopaminergic neuron differentiation score (TH+ cell fraction vs untreated, manual image score) (score (0 to 3)); higher = more TH+ dopaminergic neuron differentiation; conditions: 2 uM, 4 weeks, BDNF 10 ng/ml + GDNF 10 ng/ml

C[C@]12CC[C@H](O)C[C@H]1CC[C@@H]1[C@@H]2C[C@@H](O)[C@]2(C)[C@@H](C3=CC(=O)OC3)CC[C@]12O [Digoxigenin]
inactive: neuronal differentiation score ([1]; library: Phytochemical) 0 | neuronal differentiation score ([1]; library: Prestwick) 0 | dopaminergic neuron differentiation score ([2]; library: Phytochemical) 0 | dopaminergic neuron differentiation score ([2]; library: Prestwick) 0

Cc1nnc2ccc(-c3cccc(C(F)(F)F)c3)nn12
inactive: neuronal differentiation score ([1]; library: LOPAC) 0 | neuronal differentiation score ([1]; library: Tocriscreen) 0 | dopaminergic neuron differentiation score ([2]; library: LOPAC) 0 | dopaminergic neuron differentiation score ([2]; library: Tocriscreen) 0

COc1ccc2c(c1)[C@]13CCCC[C@@H]1[C@H](C2)N(C)CC3 [Dextromethorphan hydrobromide monohydrate]
inactive: neuronal differentiation score ([1]; library: LOPAC) 0 | neuronal differentiation score ([1]; library: Prestwick) 0 | dopaminergic neuron differentiation score ([2]; library: LOPAC) 0 | dopaminergic neuron differentiation score ([2]; library: Prestwick) 0

NCCc1c[nH]c2ccc(C(N)=O)cc12 [5-Carboxamidotryptamine maleate]
inactive: neuronal differentiation score ([1]; library: LOPAC) 0 | neuronal differentiation score ([1]; library: Tocriscreen) 0 | dopaminergic neuron differentiation score ([2]; library: LOPAC) 0 | dopaminergic neuron differentiation score ([2]; library: Tocriscreen) 0

C=CCN1C[C@H](C)N([C@H](c2ccc(C(=O)N(CC)CC)cc2)c2cccc(OC)c2)C[C@H]1C
inactive: neuronal differentiation score ([1]; library: LOPAC) 0 | neuronal differentiation score ([1]; library: Tocriscreen) 0 | dopaminergic neuron differentiation score ([2]; library: LOPAC) 0 | dopaminergic neuron differentiation score ([2]; library: Tocriscreen) 0

c1ccc(C2CC2)c(OCC2=NCCN2)c1 [Cirazoline hydrochloride]
inactive: neuronal differentiation score ([1]; library: LOPAC) 0 | neuronal differentiation score ([1]; library: Tocriscreen) 0 | dopaminergic neuron differentiation score ([2]; library: LOPAC) 0 | dopaminergic neuron differentiation score ([2]; library: Tocriscreen) 0

O=c1[nH]oc2c1CCNC2 [THIP hydrochloride]
inactive: neuronal differentiation score ([1]; library: LOPAC) 0 | neuronal differentiation score ([1]; library: Tocriscreen) 0 | dopaminergic neuron differentiation score ([2]; library: LOPAC) 0 | dopaminergic neuron differentiation score ([2]; library: Tocriscreen) 0

CCOC(=O)c1cncn1[C@H](C)c1ccccc1 [Etomidate]
inactive: neuronal differentiation score ([1]; library: Prestwick) 0 | neuronal differentiation score ([1]; library: Tocriscreen) 0 | dopaminergic neuron differentiation score ([2]; library: Prestwick) 0 | dopaminergic neuron differentiation score ([2]; library: Tocriscreen) 0

CNCC(O)c1ccc(O)cc1 (racemic) [(+,-)-Synephrine]
inactive: neuronal differentiation score ([1]; library: Phytochemical) 0 | neuronal differentiation score ([1]; library: Prestwick) 0 | dopaminergic neuron differentiation score ([2]; library: Phytochemical) 0 | dopaminergic neuron differentiation score ([2]; library: Prestwick) 0

CC(C)[C@@]1(NC(=O)[C@@H]2C[C@@H]3c4cccc5[nH]cc(c45)C[C@H]3N(C)C2)O[C@@]2(O)[C@@H]3CCCN3C(=O)[C@H](Cc3ccccc3)N2C1=O [Dihydroergocristine mesylate]
inactive: neuronal differentiation score ([1]; library: Phytochemical) 0 | neuronal differentiation score ([1]; library: Tocriscreen) 0 | dopaminergic neuron differentiation score ([2]; library: Phytochemical) 0 | dopaminergic neuron differentiation score ([2]; library: Tocriscreen) 0

O=C1NCN(c2ccccc2)C12CCN(CC1COc3ccccc3O1)CC2 (centres undefined) [Spiroxatrine]
inactive: neuronal differentiation score ([1]; library: LOPAC) 0 | neuronal differentiation score ([1]; library: Tocriscreen) 0 | dopaminergic neuron differentiation score ([2]; library: LOPAC) 0 | dopaminergic neuron differentiation score ([2]; library: Tocriscreen) 0

COC1=CC=C2[C@H]3Cc4ccc(OC)c5c4[C@@]2(CCN3C)[C@H]1O5 [thebaine]
inactive: neuronal differentiation score ([1]; library: Natural) 0 | dopaminergic neuron differentiation score ([2]; library: Natural) 0

C[C@@H]1O[C@@H](O[C@H]2C[C@@H](O)[C@]3(CO)[C@H]4[C@H](O)C[C@]5(C)[C@@H](C6=CC(=O)OC6)CC[C@]5(O)[C@@H]4CC[C@]3(O)C2)[C@H](O)[C@H](O)[C@H]1O [Ouabain]
inactive: neuronal differentiation score ([1]; library: LOPAC) 0 | neuronal differentiation score ([1]; library: Tocriscreen) 0 | dopaminergic neuron differentiation score ([2]; library: LOPAC) 0 | dopaminergic neuron differentiation score ([2]; library: Tocriscreen) 0

Nc1ccncc1 [4-Aminopyridine]
inactive: neuronal differentiation score ([1]; library: LOPAC) 0 | neuronal differentiation score ([1]; library: Tocriscreen) 0 | dopaminergic neuron differentiation score ([2]; library: LOPAC) 0 | dopaminergic neuron differentiation score ([2]; library: Tocriscreen) 0

COC(=O)[C@@H]1C[C@H](OC(C)=O)C(=O)[C@H]2[C@@]1(C)CC[C@H]1C(=O)O[C@H](c3ccoc3)C[C@]21C
inactive: neuronal differentiation score ([1]; library: Spectrum) 0 | dopaminergic neuron differentiation score ([2]; library: Spectrum) 0

CCCN(CCC)C1Cc2cc(OC)c(OC)cc2C1
inactive: neuronal differentiation score ([1]; library: LOPAC) 0 | neuronal differentiation score ([1]; library: Tocriscreen) 0 | dopaminergic neuron differentiation score ([2]; library: LOPAC) 0 | dopaminergic neuron differentiation score ([2]; library: Tocriscreen) 0

CC1=C2[C@H]3OC(=O)[C@@H](C)[C@@H]3CC[C@@]2(C)C=CC1=O [alpha-Santonin]
inactive: neuronal differentiation score ([1]; library: Phytochemical) 0 | dopaminergic neuron differentiation score ([2]; library: Phytochemical) 0

Oc1ccc2c3c1O[C@H]1[C@@H](O)CC[C@@]4(O)[C@@H](C2)N(CC2CCC2)CC[C@]314 [Nalbuphine hydrochloride]
inactive: neuronal differentiation score ([1]; library: LOPAC) 0 | neuronal differentiation score ([1]; library: Prestwick) 0 | dopaminergic neuron differentiation score ([2]; library: LOPAC) 0 | dopaminergic neuron differentiation score ([2]; library: Prestwick) 0

O=C(Cc1ccc(Cl)c(Cl)c1)N1CCCCC1CN1CCCC1 (centres undefined)
inactive: neuronal differentiation score ([1]; library: LOPAC) 0 | neuronal differentiation score ([1]; library: Tocriscreen) 0 | dopaminergic neuron differentiation score ([2]; library: LOPAC) 0 | dopaminergic neuron differentiation score ([2]; library: Tocriscreen) 0

c1ccc(/N=N/c2ccccc2)cc1
inactive: neuronal differentiation score ([1]; library: Spectrum) 0 | dopaminergic neuron differentiation score ([2]; library: Spectrum) 0

CCCn1c(=O)c2[nH]c(C3CCCC3)nc2n(CCCOC(=O)c2ccc(S(=O)(=O)F)cc2)c1=O
inactive: neuronal differentiation score ([1]; library: LOPAC) -1 | dopaminergic neuron differentiation score ([2]; library: LOPAC) 0

C[C@]12CC[C@H]3[C@@H](CC[C@]4(O)C[C@@H](O)CC[C@]34C=O)[C@@]1(O)CC[C@@H]2C1=CC(=O)OC1
inactive: neuronal differentiation score ([1]; library: Spectrum) 0 | dopaminergic neuron differentiation score ([2]; library: Spectrum) 0

COC(=O)C1=CCCN(C)C1 [Arecoline hydrobromide]
inactive: neuronal differentiation score ([1]; library: LOPAC) 0 | neuronal differentiation score ([1]; library: Phytochemical) 0 | dopaminergic neuron differentiation score ([2]; library: LOPAC) 0 | dopaminergic neuron differentiation score ([2]; library: Phytochemical) 0

CC(CCc1ccccc1)NC(C)C(O)c1ccc(O)cc1 (centres undefined)
inactive: neuronal differentiation score ([1]; library: Spectrum) 0 | dopaminergic neuron differentiation score ([2]; library: Spectrum) 0

CC(=O)NCCc1c[nH]c2ccccc12 [N-Acetyltryptamine]
inactive: neuronal differentiation score ([1]; library: LOPAC) -1 | neuronal differentiation score ([1]; library: Tocriscreen) 0 | dopaminergic neuron differentiation score ([2]; library: LOPAC) 0 | dopaminergic neuron differentiation score ([2]; library: Tocriscreen) 0

NCCc1c[nH]c2ccccc12 [Tryptamine hydrochloride]
inactive: neuronal differentiation score ([1]; library: LOPAC) 0 | dopaminergic neuron differentiation score ([2]; library: LOPAC) 0

Filtered by structure, those above with nitrogen in an aromatic ring.
Cc1nnc2ccc(-c3cccc(C(F)(F)F)c3)nn12
inactive: neuronal differentiation score ([1]; library: LOPAC) 0 | neuronal differentiation score ([1]; library: Tocriscreen) 0 | dopaminergic neuron differentiation score ([2]; library: LOPAC) 0 | dopaminergic neuron differentiation score ([2]; library: Tocriscreen) 0

NCCc1c[nH]c2ccc(C(N)=O)cc12 [5-Carboxamidotryptamine maleate]
inactive: neuronal differentiation score ([1]; library: LOPAC) 0 | neuronal differentiation score ([1]; library: Tocriscreen) 0 | dopaminergic neuron differentiation score ([2]; library: LOPAC) 0 | dopaminergic neuron differentiation score ([2]; library: Tocriscreen) 0

O=c1[nH]oc2c1CCNC2 [THIP hydrochloride]
inactive: neuronal differentiation score ([1]; library: LOPAC) 0 | neuronal differentiation score ([1]; library: Tocriscreen) 0 | dopaminergic neuron differentiation score ([2]; library: LOPAC) 0 | dopaminergic neuron differentiation score ([2]; library: Tocriscreen) 0

CCOC(=O)c1cncn1[C@H](C)c1ccccc1 [Etomidate]
inactive: neuronal differentiation score ([1]; library: Prestwick) 0 | neuronal differentiation score ([1]; library: Tocriscreen) 0 | dopaminergic neuron differentiation score ([2]; library: Prestwick) 0 | dopaminergic neuron differentiation score ([2]; library: Tocriscreen) 0

CC(C)[C@@]1(NC(=O)[C@@H]2C[C@@H]3c4cccc5[nH]cc(c45)C[C@H]3N(C)C2)O[C@@]2(O)[C@@H]3CCCN3C(=O)[C@H](Cc3ccccc3)N2C1=O [Dihydroergocristine mesylate]
inactive: neuronal differentiation score ([1]; library: Phytochemical) 0 | neuronal differentiation score ([1]; library: Tocriscreen) 0 | dopaminergic neuron differentiation score ([2]; library: Phytochemical) 0 | dopaminergic neuron differentiation score ([2]; library: Tocriscreen) 0

Nc1ccncc1 [4-Aminopyridine]
inactive: neuronal differentiation score ([1]; library: LOPAC) 0 | neuronal differentiation score ([1]; library: Tocriscreen) 0 | dopaminergic neuron differentiation score ([2]; library: LOPAC) 0 | dopaminergic neuron differentiation score ([2]; library: Tocriscreen) 0

CCCn1c(=O)c2[nH]c(C3CCCC3)nc2n(CCCOC(=O)c2ccc(S(=O)(=O)F)cc2)c1=O
inactive: neuronal differentiation score ([1]; library: LOPAC) -1 | dopaminergic neuron differentiation score ([2]; library: LOPAC) 0

CC(=O)NCCc1c[nH]c2ccccc12 [N-Acetyltryptamine]
inactive: neuronal differentiation score ([1]; library: LOPAC) -1 | neuronal differentiation score ([1]; library: Tocriscreen) 0 | dopaminergic neuron differentiation score ([2]; library: LOPAC) 0 | dopaminergic neuron differentiation score ([2]; library: Tocriscreen) 0

NCCc1c[nH]c2ccccc12 [Tryptamine hydrochloride]
inactive: neuronal differentiation score ([1]; library: LOPAC) 0 | dopaminergic neuron differentiation score ([2]; library: LOPAC) 0

Further structures:

O=C1C(Cl)=C(Cl)C(=O)C(Cl)=C1Cl
inactive: neuronal differentiation score ([1]; library: Spectrum) 0 | dopaminergic neuron differentiation score ([2]; library: Spectrum) 0

NC(C(=O)O)c1nn[nH]n1 (racemic) [(RS)-(Tetrazol-5-yl)glycine]
inactive: neuronal differentiation score ([1]; library: Tocriscreen) 0 | dopaminergic neuron differentiation score ([2]; library: Tocriscreen) 0

CC1=C2C(=CO[C@H](C)[C@H]2C)C(O)=C(C(=O)O)C1=O [citrinin]
inactive: neuronal differentiation score ([1]; library: Natural) 0 | dopaminergic neuron differentiation score ([2]; library: Natural) 0
